# From paper PMC5996148
# This is one part of the list. For some assays here: Construct or isoform of the protein are uncertain.
# Legend:
# Assay in all cases: protein microarray (ProtoArray v5.0), streptavidin-Alexa Fluor 647
# Conditions in all cases: 3'-biotin; 20 mM Tris (pH 7.5), 5 mM MgCl2, 100 mM KCl, 0.1% Tween-20, A/T-rich and random oligonucleotide blockers; temperature not stated; high values mean tight binding
# [1] = tested on: CISD1 (human)
# [2] = biological target: T1, CISH (UniProt Q9NSE2)
# T1 sequence: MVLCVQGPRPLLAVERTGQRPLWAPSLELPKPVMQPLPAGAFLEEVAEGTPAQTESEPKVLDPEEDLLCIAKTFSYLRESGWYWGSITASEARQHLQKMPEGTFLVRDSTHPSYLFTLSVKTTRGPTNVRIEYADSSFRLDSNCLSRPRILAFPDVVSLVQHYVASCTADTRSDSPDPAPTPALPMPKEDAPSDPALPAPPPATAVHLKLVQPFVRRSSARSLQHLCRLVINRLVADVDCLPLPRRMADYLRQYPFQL
# [3] = tested on: CKB (human)
# [4] = tested on: CKLF-like MARVEL transmembrane domain-containing protein 1 (human)
# [5] = tested on: CKLFSF5 (human)
# [6] = tested on: CKM (human)
# [7] = tested on: CLCF1 (human)
# [8] = tested on: CLDN1 (human)
# [9] = tested on: CLDN10 (human)
# [10] = tested on: CLDN12 (human)
# [11] = tested on: CLDN14 (human)
# [12] = tested on: CLDN15 (human)
# [13] = tested on: CLDN18 (human)
# [14] = tested on: CLDN2 (human)
# [15] = tested on: CLDN20 (human)
# [16] = tested on: CLDN3 (human)
# [17] = tested on: CLDN7 (human)
# [18] = tested on: CLEC10A (human)
# [19] = tested on: CLEC4D (human)
# [20] = tested on: CLEC4E (human)
sequence,measurement,setting,value
GGGAGGCTGAGGCAGG [G4-1 biotinylated (PQS2)],binding signal,[1],-0.322 z-score
same,binding signal,[2],-0.327 z-score
same,binding signal,[3],-0.301 z-score
same,binding signal,[4],-0.334 z-score
same,binding signal,[5],-0.35 z-score
same,binding signal,[6],-0.355 z-score
same,binding signal,[7],-0.355 z-score
same,binding signal,[8],-0.296 z-score
same,binding signal,[9],-0.304 z-score
same,binding signal,[10],-0.331 z-score
same,binding signal,[11],-0.311 z-score
same,binding signal,[12],-0.308 z-score
same,binding signal,[13],-0.36 z-score
same,binding signal,[14],-0.345 z-score
same,binding signal,[15],-0.289 z-score
same,binding signal,[16],-0.275 z-score
same,binding signal,[17],-0.291 z-score
same,binding signal,[18],-0.279 z-score
same,binding signal,[19],-0.331 z-score
same,binding signal,[20],-0.304 z-score

# Two neighbouring entries already listed, quoted:
sequence,measurement,setting,value
GGGAGGCTGAGGCAGG [G4-1 biotinylated (PQS2)],binding signal,[8],-0.296 z-score
same,binding signal,[9],-0.304 z-score
